Results are given in words; binding and its absence hold for the method and conditions named. Some entries that bind do so weakly or less than the wild type.
Biological target: T1, Recombinant IL-11Rα (IL-11 receptor alpha) (UniProt Q14626)
T1 sequence (looked up): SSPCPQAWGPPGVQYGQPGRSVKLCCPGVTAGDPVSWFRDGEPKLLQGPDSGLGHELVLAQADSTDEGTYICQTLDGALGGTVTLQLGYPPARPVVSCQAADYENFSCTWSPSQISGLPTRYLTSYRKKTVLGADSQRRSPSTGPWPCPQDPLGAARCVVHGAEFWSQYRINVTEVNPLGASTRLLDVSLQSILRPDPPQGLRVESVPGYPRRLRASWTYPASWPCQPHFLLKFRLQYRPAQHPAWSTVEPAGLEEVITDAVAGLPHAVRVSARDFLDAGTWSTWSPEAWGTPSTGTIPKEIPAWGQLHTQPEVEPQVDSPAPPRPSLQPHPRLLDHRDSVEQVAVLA
Assay: in vitro ligand-receptor binding assay, phage on immobilized recombinant receptor

In the case of CGRRAGGSC [… (SEQ ID NO:37)-displaying phage], the binding is reported as “binds”.

— patent US20060239968A1 (University of Texas, published 2006)
